PubChem BioAssay AID1259254, NCATS – 2017
This is a random part of about 59,000 reagents. About 1,550 of all reagents (2.6%) count as active. 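G2 share is only a proxy for re-replication; each gene was hit by three separate siRNAs, and active genes were retested.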 Reagents against one gene are numbered here. Further read-outs or replicates are left out here. No sequences are given here. Not given: the amount of reagent.

Assay: 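Genome-wide screen for genes that prevent DNA re-replication in cancer cells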 (primary screen)
Cell system: human HCT116 colorectal cancer cells
Reagent: single siRNA against human genes
Time to read-out: 3 days
Read-out: 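Nuclei stained with Hoechst and imaged; cell-cycle phase assigned by DNA content; G2 share scaled per plate, non-targeting siRNA 0%, GMNN siRNA 100%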
Direction: G2 robust z-score and G2 cells, % of GMNN control: higher = more G2 cells, more excess DNA replication
Active means: 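An siRNA counts as active if its G2 robust z-score lies at least 5 MADs above the screen median; here such calls match roughly 38% of GMNN control or more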

Gene,reagent no.,G2 robust z-score,"G2 cells, % of GMNN control",outcome
DEFB105A (defensin beta 105A),1,0.103,3.69,inactive
DEFB105A (defensin beta 105A),2,1.19,11.3,inactive
DEFB105A (defensin beta 105A),3,0.00449,3,inactive
DNAJA1P4,1,-0.74,-2.24,inactive
DNAJA1P4,2,0.449,6.13,inactive
DNAJA1P4,3,-0.119,2.13,inactive
OPRL1 (opioid related nociceptin receptor 1),1,1.65,14.6,inactive
OPRL1 (opioid related nociceptin receptor 1),2,-0.868,-3.14,inactive
OPRL1 (opioid related nociceptin receptor 1),3,-0.384,0.262,inactive
RASL12 (RAS like family 12),1,-1.37,-6.69,inactive
RASL12 (RAS like family 12),2,0.414,5.88,inactive
RASL12 (RAS like family 12),3,2.97,23.9,inactive
"ABL1 (ABL proto-oncogene 1, non-receptor tyrosine kinase)",1,-0.559,-0.967,inactive
"ABL1 (ABL proto-oncogene 1, non-receptor tyrosine kinase)",2,0.154,4.05,inactive
"ABL1 (ABL proto-oncogene 1, non-receptor tyrosine kinase)",3,-0.44,-0.128,inactive
AASDH (aminoadipate-semialdehyde dehydrogenase),1,-1.1,-4.74,inactive
AASDH (aminoadipate-semialdehyde dehydrogenase),2,0.117,3.79,inactive
AASDH (aminoadipate-semialdehyde dehydrogenase),3,-0.517,-0.667,inactive
TSPAN7 (tetraspanin 7),1,2.53,20.8,inactive
TSPAN7 (tetraspanin 7),2,-0.131,2.05,inactive
TSPAN7 (tetraspanin 7),3,0.798,8.58,inactive
DOK5 (docking protein 5),1,0.0536,3.34,inactive
DOK5 (docking protein 5),2,1.33,12.3,inactive
DOK5 (docking protein 5),3,-0.137,2,inactive
ATP6V1D (ATPase H+ transporting V1 subunit D),1,2.25,18.8,inactive
ATP6V1D (ATPase H+ transporting V1 subunit D),2,1.5,13.5,inactive
ATP6V1D (ATPase H+ transporting V1 subunit D),3,2.1,17.8,inactive
FYCO1 (FYVE and coiled-coil domain autophagy adaptor 1),1,-0.298,0.871,inactive
FYCO1 (FYVE and coiled-coil domain autophagy adaptor 1),2,1.38,12.7,inactive
FYCO1 (FYVE and coiled-coil domain autophagy adaptor 1),3,0.799,8.59,inactive
RNPEPL1 (arginyl aminopeptidase like 1),1,-1.65,-8.63,inactive
RNPEPL1 (arginyl aminopeptidase like 1),2,-0.749,-2.31,inactive
RNPEPL1 (arginyl aminopeptidase like 1),3,1.7,14.9,inactive
UBL3 (ubiquitin like 3),1,1.69,14.9,inactive
UBL3 (ubiquitin like 3),2,0.119,3.8,inactive
UBL3 (ubiquitin like 3),3,2.96,23.8,inactive
TMX2 (thioredoxin related transmembrane protein 2),1,0.255,4.76,inactive
TMX2 (thioredoxin related transmembrane protein 2),2,0.785,8.49,inactive
TMX2 (thioredoxin related transmembrane protein 2),3,0.0437,3.27,inactive
EXOC5P1 (exocyst complex component 5 pseudogene 1),1,1.06,10.4,inactive
EXOC5P1 (exocyst complex component 5 pseudogene 1),2,-0.432,-0.0708,inactive
EXOC5P1 (exocyst complex component 5 pseudogene 1),3,-0.252,1.19,inactive
PHYHIP (phytanoyl-CoA 2-hydroxylase interacting protein),1,2.23,18.7,inactive
PHYHIP (phytanoyl-CoA 2-hydroxylase interacting protein),2,-0.0266,2.78,inactive
PHYHIP (phytanoyl-CoA 2-hydroxylase interacting protein),3,2.54,20.8,inactive
PRMT2IP (PRMT2 interacting protein),1,0.116,3.79,inactive
PRMT2IP (PRMT2 interacting protein),2,-0.961,-3.79,inactive
PRMT2IP (PRMT2 interacting protein),3,0.119,3.8,inactive
ZNF143 (zinc finger protein 143),1,-0.736,-2.21,inactive
ZNF143 (zinc finger protein 143),2,-0.893,-3.31,inactive
ZNF143 (zinc finger protein 143),3,1.32,12.3,inactive
"SSPOP (SCO-spondin, pseudogene)",1,-0.822,-2.81,inactive
"SSPOP (SCO-spondin, pseudogene)",2,-0.0423,2.67,inactive
"SSPOP (SCO-spondin, pseudogene)",3,0.083,3.55,inactive
TXNDC16 (thioredoxin domain containing 16),1,1.17,11.2,inactive
TXNDC16 (thioredoxin domain containing 16),2,3.08,24.6,inactive
TXNDC16 (thioredoxin domain containing 16),3,-0.367,0.384,inactive
ANXA6 (annexin A6),1,-0.578,-1.1,inactive
ANXA6 (annexin A6),2,1.87,16.1,inactive
ANXA6 (annexin A6),3,2.09,17.6,inactive
NME9 (NME/NM23 family member 9),1,4.37,33.7,inactive
NME9 (NME/NM23 family member 9),2,-0.522,-0.704,inactive
NME9 (NME/NM23 family member 9),3,2.58,21.1,inactive
IFNB1 (interferon beta 1),1,-0.759,-2.37,inactive
IFNB1 (interferon beta 1),2,4.71,36.1,inactive
IFNB1 (interferon beta 1),3,0.0584,3.38,inactive
RASL10A (RAS like family 10 member A),1,0.0685,3.45,inactive
RASL10A (RAS like family 10 member A),2,-0.505,-0.588,inactive
RASL10A (RAS like family 10 member A),3,-1.67,-8.78,inactive
STON2 (stonin 2),1,5.36,40.7,active
STON2 (stonin 2),2,-0.198,1.57,inactive
STON2 (stonin 2),3,0.476,6.32,inactive
CTNNA1 (catenin alpha 1),1,1.75,15.3,inactive
CTNNA1 (catenin alpha 1),2,-0.103,2.24,inactive
CTNNA1 (catenin alpha 1),3,0.221,4.52,inactive
MAGEB3 (MAGE family member B3),1,4.19,32.4,inactive
MAGEB3 (MAGE family member B3),2,-0.731,-2.17,inactive
MAGEB3 (MAGE family member B3),3,1.12,10.8,inactive
PLCE1 (phospholipase C epsilon 1),1,-0.679,-1.81,inactive
PLCE1 (phospholipase C epsilon 1),2,-0.763,-2.4,inactive
PLCE1 (phospholipase C epsilon 1),3,0.00795,3.02,inactive
TMEM200C (transmembrane protein 200C),1,0.283,4.96,inactive
TMEM200C (transmembrane protein 200C),2,-0.605,-1.29,inactive
TMEM200C (transmembrane protein 200C),3,-1.2,-5.46,inactive
WFDC5 (WAP four-disulfide core domain 5),1,-0.679,-1.81,inactive
WFDC5 (WAP four-disulfide core domain 5),2,-1.24,-5.77,inactive
WFDC5 (WAP four-disulfide core domain 5),3,-0.165,1.81,inactive

Ordered by “G2 cells, % of GMNN control” (ascending): 7 of the entries above.
Gene,reagent no.,G2 robust z-score,"G2 cells, % of GMNN control",outcome
ANXA6 (annexin A6),1,-0.578,-1.1,inactive
TXNDC16 (thioredoxin domain containing 16),3,-0.367,0.384,inactive
TXNDC16 (thioredoxin domain containing 16),1,1.17,11.2,inactive
ANXA6 (annexin A6),2,1.87,16.1,inactive
ANXA6 (annexin A6),3,2.09,17.6,inactive
TXNDC16 (thioredoxin domain containing 16),2,3.08,24.6,inactive
NME9 (NME/NM23 family member 9),1,4.37,33.7,inactive
